This passage reports binding results from patent US20090297524A1 (DOMANTIS, published 2009).

By UniProt entry, the sequences of proteins in these tests, tags left out. Residues count along the entry.
UniProt P02769, residues 25-607: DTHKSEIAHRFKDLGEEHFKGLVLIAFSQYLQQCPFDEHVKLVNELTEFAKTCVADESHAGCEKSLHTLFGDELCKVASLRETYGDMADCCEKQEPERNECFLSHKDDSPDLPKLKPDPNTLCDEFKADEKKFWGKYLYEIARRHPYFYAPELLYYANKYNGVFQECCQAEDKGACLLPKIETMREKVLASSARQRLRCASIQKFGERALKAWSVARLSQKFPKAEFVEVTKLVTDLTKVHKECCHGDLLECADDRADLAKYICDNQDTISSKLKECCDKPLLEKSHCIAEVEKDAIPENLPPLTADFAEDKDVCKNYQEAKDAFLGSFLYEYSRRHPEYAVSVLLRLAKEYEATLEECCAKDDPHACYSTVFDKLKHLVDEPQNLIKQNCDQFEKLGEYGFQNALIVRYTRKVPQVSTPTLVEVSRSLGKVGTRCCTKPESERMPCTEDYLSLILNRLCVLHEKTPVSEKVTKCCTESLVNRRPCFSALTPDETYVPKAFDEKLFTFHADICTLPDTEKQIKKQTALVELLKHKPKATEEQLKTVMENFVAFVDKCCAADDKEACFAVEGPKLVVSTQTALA

Numbering of substitutions follows the chain as printed. Results are given in words; binding and its absence hold for the method and conditions named. Some entries that bind do so weakly or less than the wild type.

The chains are these.
B1: DOM7h-26-DOM-24 (bispecific antibody)
chain: LEKREVQLLESGGGLVQPGGSLRLSCTASGFTFDEYNMSWVRQAPGKGLEWVSTILPHGDRTYYADSVKGRFTISRDNSKNTLYLQMNSLRAEDTAVYYCAKQDPLYRFDYWGQGTLVTVSSAAAEVQLLESGGGLVQPGGSLRLSCAASGFTFSNYQMAWVRQAPGKGLEWVSSITSEGGSTYYADSVKGRFTISRDNSKNTLYLQMNSLRAEDTAVYYCAKPGKNFDYWGQGTLVTVSS
B2: DOM.172 (protein)
VL: DIQMTQSPSSLSASVGDRVTITCRASQAIGNTLRWYQQKPGKAPKLLIYLSSRLQSGVPSRFSGSGSGTDFTLTISSLQPEDFATYYCQQLKKPPYTFGQGTKVEIKR
B3: DOM.171 (protein)
VL: DIQMTQSPSSLSASVGDRVTITCRASQSIESNLEWYQQKPGKAPKLLIYNASELQSGVPSRFSGSGSGTDFTLTISSLRPEDFATYYCQQYDQWPTTFGQGTKVEIKR
B4: DOM.173 (protein)
VL: DIQMTQSPSSLSASVGDRVTITCRASQKIKNRLAWYQQKPGKAPKLLIYEVSHLQSGVPSRFSGSGSGTDFTLTIGSLQPEDFATYYCQQRRQSPYTFGQGTKVEIKR
B5: DOM.179 (protein)
VH: EVQLLESGGGLVQPGGSLRLSCAASGFTFSAYDMMWVRQAPGKGLEWVSRISPQGQRTYYADSVKGRFTISRDNSKNTLYLQMNSLRAEDTAVYYCAKIRGQSRIPMRFDYWGQGTLV
B6: DOM.96 (protein)
VH: EVQPLESGGGLVQPGGSLRLSCAASGFTFTDYKMLWVRQAPGKGLEWVSSISPSGRWTYYADSVKGRFTISRDNSKNTLYLQMNSLRAEDTAVYYCAKSLFEGSFDYWGQGTLVTVSS
B7: DOM.165 (protein)
VL: DIQMTQSPSSLSASVGDRVTITCRASQSISTDLEWYQQKLGKAPKLLIYDASLLQSGVPSRFSGSGSGTDFTLTISSLQPEDFATYYCQQYSSLPVTFGQGTKVEIKR
B8: DOM.167 (protein)
VL: B7 VL with S28N, S30H, D32N, L40P, A51G, L53M, S93A, L94N, E105G
B9: DOM.168 (protein)
VL: B7 VL with S28W, S30H, L40P, A51G, L53M, S93V, L94S
B10: DOM.166 (protein)
VL: B7 VL with S28P, S30T, D32S, L40P, L53M, S92W, S93V, L94T
B11: DOM.169 (protein)
VL: B7 VL with S30D, T31N, D32N, L40P, K42E, A51G, S92H, S93L, L94H
B12: DOM.170 (protein)
VL: B7 VL with S28D, S30D, D32N, L40P, K42E, A51R, L53T, S92D, L94Y
B13: DOM.174 (protein)
VL: DIQMTQSPSSLSASVGDRVTITCRASEDIGEELFWYQQKPGKAPKLLIYSASTLQSEVPSRFSGSGSGTDFTLTISSLQHEDFATYYCQQVYEWPYTFGQGTKVEIKR
B14: DOM8-24cys (other)
VH: ASTEVQLLESGGGLVQPGGSLRLSCAASGFTFSNYQMAWVRQAPGKGLEWVSSITSEGGSTYYADSVKGRFTISRDNSKNTLYLQMNSLRAEDTAVYYCAKPGKNFDYWGQGTLVTVSC
notes: VH dAb DOM8-24 with an engineered C-terminal cysteine (last Ser replaced by Cys); also called unmodified protein
B15: 30K PEG-MAL PEGylated DOM8-24cys (other)
VH: B14 VH
modifications: 30K PEG-MAL on the engineered C-terminal cysteine
notes: PEGylated monomer; also called 30K PEG DOM8-24cys
B16: 40K PEG2-MAL PEGylated DOM8-24cys (other)
VH: B14 VH
modifications: 40K PEG2-MAL on the engineered C-terminal cysteine
notes: PEGylated monomer; also called 40K PEG DOM8-24cys

The target of one test is T1, Recombinant human CD40L (human, UniProt P29965 108-261, limits assumed).
T1 construct: also called CD40 ligand
T1 sequence (looked up): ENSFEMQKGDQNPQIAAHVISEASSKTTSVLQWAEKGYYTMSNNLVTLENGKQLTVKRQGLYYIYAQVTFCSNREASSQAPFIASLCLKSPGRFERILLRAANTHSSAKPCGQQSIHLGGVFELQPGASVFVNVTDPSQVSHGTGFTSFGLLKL
Nature of the test: sandwich ELISA for simultaneous binding: HSA coated on the plate, doubling dilutions of the dimer, detection with 5 nM biotinylated CD40L and streptavidin-HRP.
Regarding B1, the binding entry is “binds”.

A further test addresses T1, Recombinant human CD40L. The test can be described thus: CD40L/CD40-Fc receptor binding assay.
For B2, the binding result is recorded as “binds”. On to B3, for which the binding entry was “binds”. For the molecule B4, the binding result is recorded as “binds”. For B5, the binding entry is given as “binds”.

Regarding B6, the binding result is on record as “binds”.

Turning to B7, the binding entry was “binds”. Still for that read-out and setting: next, B8: “binds”.

In the case of B9, the binding result is given as “binds”. As to B10, the binding result is “binds”. Still for that read-out and setting: next, B11: “binds”; B12: “binds”. Take B13: the binding entry is given as “binds”.

For the next test, the target named is T1, Recombinant human CD40L. Nature of the test: CD40L receptor binding assay (RBA, ELISA): dAb titrated against 3 ng/ml CD40L binding to plate-coated CD40/Fc. In general terms: An ELISA detects its analyte on a solid surface through an enzyme-linked reagent.
For B14, the binding entry is “binds”. On the same count and under the same terms, as for B15, the entry is “binds”; as for B16, “binds”.

For another test, the target named is T1, Recombinant human CD40L. Nature of the test: CD40L receptor binding assay: inhibition of CD40L (3 ng/ml) binding to coated CD40/Fc.
Take B14: the binding entry is on record as “binds”.

Another test has as its target BSA (bovine) (UniProt P02769). The test can be described thus: same ELISA with control BSA antigen on the plate in place of HSA; detection with biotinylated CD40L and streptavidin-HRP.
As for B1, the binding entry is “no binding (tested: 1/2 dilution (concentration not given))”.
